Results: the supplement of paper PMC10849652
Some of the results follow. Residues, ends and D or L forms follow the SMILES beside them. *: point of attachment. Cbz = O=C(OCc1ccccc1)*

Chains of the proteins cited; added tags and fusions are not shown. Lines headed by an entry give the natural chain unless they say otherwise; changes in a name come on top.
UniProt Q14108: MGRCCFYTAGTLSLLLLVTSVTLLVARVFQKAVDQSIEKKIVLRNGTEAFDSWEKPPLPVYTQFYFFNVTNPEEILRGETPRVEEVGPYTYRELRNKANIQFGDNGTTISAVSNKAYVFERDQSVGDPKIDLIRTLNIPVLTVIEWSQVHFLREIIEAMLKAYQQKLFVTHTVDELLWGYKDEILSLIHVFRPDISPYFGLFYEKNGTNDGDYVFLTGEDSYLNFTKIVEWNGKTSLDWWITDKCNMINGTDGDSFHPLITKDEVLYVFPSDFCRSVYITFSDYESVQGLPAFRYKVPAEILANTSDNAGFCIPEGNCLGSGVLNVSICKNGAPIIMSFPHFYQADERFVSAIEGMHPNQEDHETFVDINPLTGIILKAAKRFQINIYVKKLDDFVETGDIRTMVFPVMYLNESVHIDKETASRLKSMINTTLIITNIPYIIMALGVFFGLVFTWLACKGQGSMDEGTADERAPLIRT
UniProt Q9H446: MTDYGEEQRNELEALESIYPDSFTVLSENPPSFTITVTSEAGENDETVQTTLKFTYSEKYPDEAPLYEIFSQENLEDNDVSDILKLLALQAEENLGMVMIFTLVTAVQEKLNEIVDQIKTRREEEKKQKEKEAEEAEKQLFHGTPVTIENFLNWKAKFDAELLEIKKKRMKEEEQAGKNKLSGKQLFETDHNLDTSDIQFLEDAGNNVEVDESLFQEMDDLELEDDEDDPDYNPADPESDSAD
UniProt O00422: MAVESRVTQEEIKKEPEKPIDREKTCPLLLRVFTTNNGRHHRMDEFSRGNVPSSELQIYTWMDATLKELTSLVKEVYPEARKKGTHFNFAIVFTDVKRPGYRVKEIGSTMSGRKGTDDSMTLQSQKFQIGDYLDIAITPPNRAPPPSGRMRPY
UniProt P31949: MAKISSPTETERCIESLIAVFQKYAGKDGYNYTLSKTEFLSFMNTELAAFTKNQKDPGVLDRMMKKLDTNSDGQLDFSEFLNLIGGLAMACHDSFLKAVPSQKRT
UniProt O95197: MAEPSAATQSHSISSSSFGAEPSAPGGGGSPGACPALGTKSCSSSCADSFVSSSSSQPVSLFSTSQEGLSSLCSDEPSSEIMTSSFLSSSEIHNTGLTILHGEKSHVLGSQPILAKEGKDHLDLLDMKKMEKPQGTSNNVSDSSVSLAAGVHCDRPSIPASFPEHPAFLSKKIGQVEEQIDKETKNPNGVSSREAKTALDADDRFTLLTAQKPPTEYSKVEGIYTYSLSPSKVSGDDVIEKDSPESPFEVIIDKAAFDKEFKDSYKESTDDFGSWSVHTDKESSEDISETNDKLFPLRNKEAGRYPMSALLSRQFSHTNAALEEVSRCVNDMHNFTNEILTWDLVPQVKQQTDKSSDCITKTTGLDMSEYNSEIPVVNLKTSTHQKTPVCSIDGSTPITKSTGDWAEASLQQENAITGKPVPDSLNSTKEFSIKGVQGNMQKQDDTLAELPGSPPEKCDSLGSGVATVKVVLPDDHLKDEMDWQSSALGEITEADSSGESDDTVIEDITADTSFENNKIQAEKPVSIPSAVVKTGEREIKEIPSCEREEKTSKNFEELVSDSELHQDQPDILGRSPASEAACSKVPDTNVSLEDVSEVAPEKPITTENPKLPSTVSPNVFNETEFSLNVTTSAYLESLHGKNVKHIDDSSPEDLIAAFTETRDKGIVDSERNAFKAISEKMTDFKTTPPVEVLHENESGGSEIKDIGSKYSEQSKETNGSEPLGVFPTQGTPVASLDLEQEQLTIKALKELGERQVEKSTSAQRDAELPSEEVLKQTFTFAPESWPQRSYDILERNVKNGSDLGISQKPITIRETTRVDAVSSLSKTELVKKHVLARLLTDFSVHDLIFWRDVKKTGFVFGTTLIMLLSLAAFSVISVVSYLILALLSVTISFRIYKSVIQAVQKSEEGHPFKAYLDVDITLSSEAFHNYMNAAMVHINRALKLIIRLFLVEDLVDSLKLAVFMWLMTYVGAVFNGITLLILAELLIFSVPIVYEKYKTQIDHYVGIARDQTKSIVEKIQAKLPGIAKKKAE
UniProt Q9HCN8: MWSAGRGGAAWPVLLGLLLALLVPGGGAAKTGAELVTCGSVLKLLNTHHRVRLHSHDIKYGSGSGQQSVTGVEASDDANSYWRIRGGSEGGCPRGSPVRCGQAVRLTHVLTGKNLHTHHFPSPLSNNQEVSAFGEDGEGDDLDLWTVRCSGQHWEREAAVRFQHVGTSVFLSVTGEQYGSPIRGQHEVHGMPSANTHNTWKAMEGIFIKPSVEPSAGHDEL
UniProt Q15424: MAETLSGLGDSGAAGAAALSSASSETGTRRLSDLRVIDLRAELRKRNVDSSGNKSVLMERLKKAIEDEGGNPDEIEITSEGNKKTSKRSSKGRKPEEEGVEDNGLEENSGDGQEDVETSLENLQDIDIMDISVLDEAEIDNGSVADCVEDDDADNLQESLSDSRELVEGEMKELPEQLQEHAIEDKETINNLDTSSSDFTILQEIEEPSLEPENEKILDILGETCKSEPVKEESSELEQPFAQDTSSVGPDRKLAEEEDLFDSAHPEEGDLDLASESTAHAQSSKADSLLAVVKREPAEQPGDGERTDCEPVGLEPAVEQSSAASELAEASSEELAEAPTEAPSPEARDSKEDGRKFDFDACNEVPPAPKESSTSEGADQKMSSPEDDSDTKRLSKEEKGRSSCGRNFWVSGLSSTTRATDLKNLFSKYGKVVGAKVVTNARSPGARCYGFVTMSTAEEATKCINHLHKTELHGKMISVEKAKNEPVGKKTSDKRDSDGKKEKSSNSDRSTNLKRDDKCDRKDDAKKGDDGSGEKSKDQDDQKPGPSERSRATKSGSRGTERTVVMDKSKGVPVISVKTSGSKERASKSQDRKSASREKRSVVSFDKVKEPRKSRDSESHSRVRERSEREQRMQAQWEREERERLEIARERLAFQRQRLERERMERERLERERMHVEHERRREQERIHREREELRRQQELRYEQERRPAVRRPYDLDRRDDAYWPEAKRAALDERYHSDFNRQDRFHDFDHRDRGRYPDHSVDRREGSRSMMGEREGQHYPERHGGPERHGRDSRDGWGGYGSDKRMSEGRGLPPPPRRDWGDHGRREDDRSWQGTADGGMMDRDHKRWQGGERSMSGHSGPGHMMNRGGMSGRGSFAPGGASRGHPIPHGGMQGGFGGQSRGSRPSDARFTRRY
UniProt Q5VWQ0: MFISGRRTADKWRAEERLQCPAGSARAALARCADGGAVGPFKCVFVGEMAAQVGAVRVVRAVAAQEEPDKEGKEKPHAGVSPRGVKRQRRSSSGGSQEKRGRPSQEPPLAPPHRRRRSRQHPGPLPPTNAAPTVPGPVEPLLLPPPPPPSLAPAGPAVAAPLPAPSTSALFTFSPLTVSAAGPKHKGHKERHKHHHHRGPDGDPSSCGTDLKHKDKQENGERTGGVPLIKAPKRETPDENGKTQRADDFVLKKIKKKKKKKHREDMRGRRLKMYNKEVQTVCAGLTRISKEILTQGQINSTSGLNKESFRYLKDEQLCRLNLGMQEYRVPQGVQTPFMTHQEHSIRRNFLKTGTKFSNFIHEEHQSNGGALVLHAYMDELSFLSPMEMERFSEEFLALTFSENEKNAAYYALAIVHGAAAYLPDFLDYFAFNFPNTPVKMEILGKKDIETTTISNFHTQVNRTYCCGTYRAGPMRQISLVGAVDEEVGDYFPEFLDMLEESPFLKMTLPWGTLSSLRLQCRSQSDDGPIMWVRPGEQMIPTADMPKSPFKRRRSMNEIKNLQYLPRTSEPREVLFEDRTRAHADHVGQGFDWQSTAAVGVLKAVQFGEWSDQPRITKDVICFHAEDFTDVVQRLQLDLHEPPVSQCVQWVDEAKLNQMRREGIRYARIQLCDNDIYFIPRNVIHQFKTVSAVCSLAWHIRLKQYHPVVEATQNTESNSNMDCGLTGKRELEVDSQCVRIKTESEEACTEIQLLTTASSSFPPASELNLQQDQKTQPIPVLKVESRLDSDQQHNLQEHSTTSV
UniProt Q8WVM8, whole entry, looked up: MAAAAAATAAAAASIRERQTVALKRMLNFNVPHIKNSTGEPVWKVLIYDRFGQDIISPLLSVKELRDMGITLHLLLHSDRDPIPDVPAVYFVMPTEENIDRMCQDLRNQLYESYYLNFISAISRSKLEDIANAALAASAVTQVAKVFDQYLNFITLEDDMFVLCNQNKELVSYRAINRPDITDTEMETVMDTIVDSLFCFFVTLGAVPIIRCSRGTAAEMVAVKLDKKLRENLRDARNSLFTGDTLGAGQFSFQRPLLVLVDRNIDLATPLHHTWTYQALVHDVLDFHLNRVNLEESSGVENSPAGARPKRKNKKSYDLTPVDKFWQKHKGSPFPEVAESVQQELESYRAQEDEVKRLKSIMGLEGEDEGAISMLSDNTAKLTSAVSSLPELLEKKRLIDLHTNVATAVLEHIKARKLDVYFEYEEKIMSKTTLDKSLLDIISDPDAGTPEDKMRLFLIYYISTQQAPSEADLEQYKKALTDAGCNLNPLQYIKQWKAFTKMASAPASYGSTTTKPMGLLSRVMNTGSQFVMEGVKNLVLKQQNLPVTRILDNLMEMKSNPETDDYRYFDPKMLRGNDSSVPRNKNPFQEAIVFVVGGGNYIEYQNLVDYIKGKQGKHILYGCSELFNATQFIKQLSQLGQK
UniProt Q9Y3A5: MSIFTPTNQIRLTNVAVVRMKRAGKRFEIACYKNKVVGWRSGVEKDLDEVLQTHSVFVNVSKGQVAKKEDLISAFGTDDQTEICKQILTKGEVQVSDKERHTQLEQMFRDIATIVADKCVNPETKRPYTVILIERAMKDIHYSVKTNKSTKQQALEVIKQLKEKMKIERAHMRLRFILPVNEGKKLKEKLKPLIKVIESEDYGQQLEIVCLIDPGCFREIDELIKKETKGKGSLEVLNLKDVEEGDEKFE
UniProt O75298: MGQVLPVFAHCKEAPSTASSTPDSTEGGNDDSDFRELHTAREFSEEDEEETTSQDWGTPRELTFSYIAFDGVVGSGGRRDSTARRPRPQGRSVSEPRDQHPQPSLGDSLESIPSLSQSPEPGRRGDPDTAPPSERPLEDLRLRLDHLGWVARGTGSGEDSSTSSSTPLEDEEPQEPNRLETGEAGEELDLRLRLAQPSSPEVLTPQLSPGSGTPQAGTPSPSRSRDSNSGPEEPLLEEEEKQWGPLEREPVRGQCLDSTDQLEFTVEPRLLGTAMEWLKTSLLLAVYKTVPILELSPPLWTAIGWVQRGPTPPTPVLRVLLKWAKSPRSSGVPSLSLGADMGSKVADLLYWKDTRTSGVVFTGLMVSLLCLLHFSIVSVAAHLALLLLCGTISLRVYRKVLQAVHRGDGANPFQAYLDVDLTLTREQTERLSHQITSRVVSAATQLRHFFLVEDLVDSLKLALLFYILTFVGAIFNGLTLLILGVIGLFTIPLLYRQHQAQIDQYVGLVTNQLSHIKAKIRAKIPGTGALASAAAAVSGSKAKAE
UniProt Q99584: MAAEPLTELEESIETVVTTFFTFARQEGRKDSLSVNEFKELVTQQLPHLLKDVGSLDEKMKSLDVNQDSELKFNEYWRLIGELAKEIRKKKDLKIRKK
UniProt O43290: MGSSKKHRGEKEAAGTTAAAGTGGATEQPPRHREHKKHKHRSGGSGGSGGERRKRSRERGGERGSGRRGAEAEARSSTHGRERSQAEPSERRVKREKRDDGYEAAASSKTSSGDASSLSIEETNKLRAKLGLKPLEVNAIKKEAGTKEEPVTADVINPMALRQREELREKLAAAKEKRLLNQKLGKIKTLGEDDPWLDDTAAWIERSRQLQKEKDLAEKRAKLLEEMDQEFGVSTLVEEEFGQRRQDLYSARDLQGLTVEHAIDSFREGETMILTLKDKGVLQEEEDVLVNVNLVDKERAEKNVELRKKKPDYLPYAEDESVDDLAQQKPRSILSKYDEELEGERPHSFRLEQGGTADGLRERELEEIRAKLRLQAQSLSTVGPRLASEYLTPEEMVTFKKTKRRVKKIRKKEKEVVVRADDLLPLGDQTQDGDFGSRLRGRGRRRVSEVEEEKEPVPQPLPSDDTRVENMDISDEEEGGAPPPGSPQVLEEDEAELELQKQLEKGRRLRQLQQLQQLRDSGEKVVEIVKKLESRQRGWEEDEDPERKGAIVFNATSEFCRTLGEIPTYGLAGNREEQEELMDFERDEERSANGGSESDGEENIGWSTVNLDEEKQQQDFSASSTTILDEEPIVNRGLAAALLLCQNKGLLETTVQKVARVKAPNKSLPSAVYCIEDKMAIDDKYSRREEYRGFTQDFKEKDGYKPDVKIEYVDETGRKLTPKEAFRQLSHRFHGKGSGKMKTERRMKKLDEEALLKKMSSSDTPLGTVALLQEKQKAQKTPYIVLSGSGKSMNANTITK

Tests used:
Experiment in all cases: log2 fold change, soluble protein after heating vs DMSO (PISA); higher = thermal stabilisation; K562 cells, 10 uM, 30 min; active = over 0.2 and 3.5 SD of the protein, either way, in both replicates (recomputed)
[1] = compound: C#Cc1cccc(Nc2ncnc3cc(OCCOC)c(OCCOC)cc23)c1 [erlotinib]
How it was run: (§1)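 For each measurement, 10 μM compound was applied for 30 min to K562 cells at 2×10^6 cells/mL. Aliquots were heated for 3 min across 48°C-58°C, pooled, and extracted in PBS with 0.5% NP-40 at 4°C; the supernatant after 21,000xg for 90 min was soluble protein. This was quantified by TMTpro 16plex LC-MS/MS with channel sums equalised, and thermal stability was reported relative to control samples from duplicates, on a log2 fold-change scale.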

[2] = compound: C/C(=N\NC(=O)C1=CC(=CC=C1)S(=O)(=O)N2CCOCC2)/C3=C(C=CC(=C3)Cl)O
How it was run: as §1

[3] = compound: C1=CC(=C(C=C1Cl)C2=NC3=NC=CN=C3C(=N2)NC4=CC=NC=C4)F
How it was run: as §1

[4] = compound: C1=CC(=CC=C1C2=NC3=C(N2)C=C(C=C3)C(=O)N)OC4=CC=C(C=C4)Cl
How it was run: as §1

[5] = compound: C1=CC2=C(C=CC(=C2)/C=C\3/C(=O)NC(=NCC4=CC=CS4)S3)N=C1
How it was run: as §1

[6] = compound: C1=CC2=NC=CN=C2C=C1/C=C/3\C(=O)NC(=O)S3
How it was run: as §1

[7] = compound: C1=CC=C(C=C1)C2=NC(=C(N2)C3=CC=NC=C3)C4=CC(=C(C=C4)Cl)O
How it was run: as §1

[8] = compound: C1=CC=C2C(=C1)C3=NNC4=CC=CC(=C43)C2=O
How it was run: as §1

[9] = compound: C1CCN(C1)C(=O)NC2=CC=CC(=C2)NC3=NC=C(C(=N3)NCCC4=CN=CN4)Br
How it was run: as §1

[10] = compound: C1CN(CCC1(CC2=CC=C(C=C2)Cl)N)C3=NC=NC4=C3C=CN4
How it was run: as §1

[11] = compound: C1COCCN1CCN2C3=CC=CC=C3N=C2NC(=O)C4=CC(=CC=C4)[N+](=O)[O-] [IRAK-1-4 Inhibitor I]
How it was run: as §1

[12] = compound: C=CC(=O)N1CCC[C@@H](n2nc(-c3ccc(Oc4ccccc4)cc3)c3c(N)ncnc32)C1 [ibrutinib]
How it was run: as §1

[13] = compound: CC(=O)c1cnc2ccc(-c3cc(Cl)c(O)c(Cl)c3)nc2c1N[C@H]1CC[C@H](CN(C)C)CC1
How it was run: as §1

[14] = compound: CC(C)(C)Cn1c(N)nc2ccc(-c3[nH]c(C(C)(C)C)nc3-c3ccc(F)cc3)nc21 [ralimetinib]
How it was run: as §1

[15] = compound: CC(C)(O)CC(=O)NCCn1ccc2ncnc(Nc3ccc(Oc4cccc(C(F)(F)F)c4)c(Cl)c3)c21
How it was run: as §1

[16] = compound: CC(C)C1=C2N=C(C=C(N2N=C1)NCC3=CC=CC=C3)NCCCCCCN
How it was run: as §1

[17] = compound: CC(C)C[C@@H](C=O)NC(=O)[C@H](CC(C)C)NC(=O)[C@H](CC(C)C)NC(=O)OCc1ccccc1
How it was run: as §1

[18] = compound: CC(C)N(C[C@H]1O[C@@H](n2cnc3c(N)ncnc32)[C@H](O)[C@@H]1O)[C@H]1C[C@@H](CCc2nc3cc(C(C)(C)C)ccc3[nH]2)C1 [pinometostat]
How it was run: as §1

[19] = compound: CC1=C(C(CC(=O)N1)C2=CC=C(C=C2)C(F)(F)F)C(=O)NC3=C(C=C4C(=C3)C=NN4)F
How it was run: as §1

[20] = compound: CC1=C(C2=C(C=C1)C(=O)C3=CC=CC=C3N2CCCN)C
How it was run: as §1

Measured: log2 fold change

SCARB2 (UniProt Q14108)
inactive: [1] 0.007 | [2] 0.064 | [3] -0.047 | [4] 0.052 | [5] -0.059 | [6] 0.053 | [7] 0.032 | [8] 0.033 | [9] 0.004 | [10] 0.018 | [11] 0.002 | [12] 0.014 | [13] 0.084 | [14] 0.012 | [15] 0.073 | [16] -0.021 | [17] -0.04 | [18] -0.004 | [19] 0.031 | [20] 0.013

RWDD1 (UniProt Q9H446)
inactive: [1] 0.017 | [2] 0.053 | [3] -0.001 | [4] -0.011 | [5] 0.024 | [6] 0.047 | [7] 0.056 | [8] -0.029 | [9] 0.001 | [10] -0.009 | [11] 0.003 | [12] -0.04 | [13] -0.019 | [14] -0.089 | [15] 0.014 | [16] -0.016 | [17] -0.056 | [18] -0.036 | [19] -0.019 | [20] 0.03

SAP18 isoform 2 (UniProt O00422)
inactive: [1] -0.173 | [2] -0.131 | [3] -0.159 | [4] 0.104 | [5] -0.005 | [6] 0.098 | [7] -0.121 | [8] -0.059 | [9] -0.059 | [10] -0.105 | [11] 0.07 | [12] -0.002 | [13] -0.031 | [14] 0.05 | [15] 0.185 | [16] -0.031 | [17] 0.099 | [18] 0.036 | [19] -0.001 | [20] -0.12

S100A11 (UniProt P31949)
inactive: [1] -0.021 | [2] -0.006 | [3] 0.216 | [4] 0.024 | [5] 0.105 | [6] 0.047 | [7] 0.087 | [8] 0.002 | [9] -0.031 | [10] 0.038 | [11] 0.026 | [12] 0 | [13] 0.018 | [14] -0.04 | [15] 0 | [16] 0.13 | [17] -0.05 | [18] -0.034 | [19] -0.001 | [20] 0.152

RTN3 isoform 5 (UniProt O95197)
inactive: [1] -0.096 | [2] 0.022 | [3] 0.059 | [4] 0.09 | [5] 0.132 | [6] -0.002 | [7] 0.124 | [8] -0.045 | [9] -0.14 | [10] 0.082 | [11] 0.02 | [12] -0.363 | [13] -0.159 | [14] -0.013 | [15] -0.055 | [16] 0.001 | [17] -0.062 | [18] 0.001 | [19] -0.084 | [20] 0.056

S100A6 (UniProt P06703)
inactive: [1] -0.064 | [2] 0.075 | [3] 0.085 | [4] 0.021 | [5] 0.049 | [6] 0.04 | [7] 0.03 | [8] 0 | [9] -0.042 | [10] -0.049 | [11] -0.018 | [12] 0.048 | [13] -0.027 | [14] 0.042 | [15] -0.056 | [16] -0.006 | [17] 0.026 | [18] -0.023 | [19] -0.002 | [20] 0.108

SDF2L1 (UniProt Q9HCN8)
inactive: [1] -0.011 | [2] -0.042 | [3] -0.05 | [4] -0.011 | [5] -0.028 | [6] -0.015 | [7] -0.044 | [8] 0.003 | [9] 0.031 | [10] -0.032 | [11] -0.017 | [12] -0.02 | [13] 0.04 | [14] 0.016 | [15] -0.002 | [16] 0.013 | [17] -0.005 | [18] -0.009 | [19] 0.035 | [20] 0.008

SAFB isoform 3 (UniProt Q15424)
inactive: [1] -0.034 | [2] -0.144 | [3] -0.197 | [4] 0.038 | [5] -0.134 | [6] 0.044 | [7] -0.144 | [8] -0.033 | [9] 0.017 | [10] -0.173 | [11] -0.073 | [12] 0.015 | [13] 0.002 | [14] 0.044 | [15] 0.156 | [16] 0.069 | [17] 0.118 | [18] 0.152 | [19] 0.002 | [20] -0.123

SACS (UniProt Q9NZJ4)
inactive: [1] 0.095 | [2] 0.069 | [3] -0.074 | [4] -0.172 | [5] -0.156 | [6] 0.245 | [7] 0.077 | [8] 0.043 | [9] 0.027 | [10] -0.185 | [11] -0.006 | [12] -0.124 | [13] 0.061 | [14] -0.066 | [15] -0.037 | [16] -0.012 | [17] -0.069 | [18] -0.014 | [19] -0.027 | [20] 0.248

RSBN1 (UniProt Q5VWQ0)
inactive: [1] -0.098 | [2] -0.145 | [3] -0.392 | [4] -0.064 | [5] -0.068 | [6] 0.139 | [7] -0.154 | [8] -0.067 | [9] -0.001 | [10] -0.1 | [11] -0.033 | [12] 0.022 | [13] 0.21 | [14] 0.062 | [15] 0.08 | [16] 0.238 | [17] 0.082 | [18] 0.374 | [19] 0.015 | [20] -0.329

Quoted from the results shown (four entries):
SDF2L1 (UniProt Q9HCN8)
inactive: [1] -0.011 | [2] -0.042 | [3] -0.05 | [4] -0.011 | [5] -0.028 | [6] -0.015 | [7] -0.044 | [8] 0.003 | [9] 0.031 | [10] -0.032 | [11] -0.017 | [12] -0.02 | [13] 0.04 | [14] 0.016 | [15] -0.002 | [16] 0.013 | [17] -0.005 | [18] -0.009 | [19] 0.035 | [20] 0.008

SAFB isoform 3 (UniProt Q15424)
inactive: [1] -0.034 | [2] -0.144 | [3] -0.197 | [4] 0.038 | [5] -0.134 | [6] 0.044 | [7] -0.144 | [8] -0.033 | [9] 0.017 | [10] -0.173 | [11] -0.073 | [12] 0.015 | [13] 0.002 | [14] 0.044 | [15] 0.156 | [16] 0.069 | [17] 0.118 | [18] 0.152 | [19] 0.002 | [20] -0.123

SACS (UniProt Q9NZJ4)
inactive: [1] 0.095 | [2] 0.069 | [3] -0.074 | [4] -0.172 | [5] -0.156 | [6] 0.245 | [7] 0.077 | [8] 0.043 | [9] 0.027 | [10] -0.185 | [11] -0.006 | [12] -0.124 | [13] 0.061 | [14] -0.066 | [15] -0.037 | [16] -0.012 | [17] -0.069 | [18] -0.014 | [19] -0.027 | [20] 0.248

RSBN1 (UniProt Q5VWQ0)
inactive: [1] -0.098 | [2] -0.145 | [3] -0.392 | [4] -0.064 | [5] -0.068 | [6] 0.139 | [7] -0.154 | [8] -0.067 | [9] -0.001 | [10] -0.1 | [11] -0.033 | [12] 0.022 | [13] 0.21 | [14] 0.062 | [15] 0.08 | [16] 0.238 | [17] 0.082 | [18] 0.374 | [19] 0.015 | [20] -0.329

More entries follow:

RTCA (UniProt O00442)
inactive: [1] 0.017 | [2] 0.031 | [3] 0.063 | [4] 0.025 | [5] 0.016 | [6] 0.014 | [7] 0.023 | [8] -0.013 | [9] 0.048 | [10] 0.031 | [11] 0.013 | [12] 0.034 | [13] -0.032 | [14] -0.039 | [15] -0.106 | [16] -0.054 | [17] -0.014 | [18] -0.002 | [19] 0.058 | [20] 0.061

SCFD1 (UniProt Q8WVM8)
inactive: [1] 0.046 | [2] 0.075 | [3] 0.055 | [4] -0.026 | [5] 0.064 | [6] 0.014 | [7] 0.045 | [8] 0.019 | [9] -0.022 | [10] -0.036 | [11] -0.047 | [12] -0.001 | [13] 0.008 | [14] 0.05 | [15] -0.116 | [16] -0.045 | [17] 0.008 | [18] 0.01 | [19] -0.049 | [20] 0.037

SBDS (UniProt Q9Y3A5)
inactive: [1] 0.047 | [2] 0.086 | [3] 0.036 | [4] -0.038 | [5] 0.053 | [6] 0.027 | [7] 0.033 | [8] 0.076 | [9] 0.029 | [10] -0.064 | [11] -0.024 | [12] -0.02 | [13] -0.019 | [14] 0.032 | [15] -0.123 | [16] -0.086 | [17] -0.023 | [18] 0.003 | [19] -0.017 | [20] 0.037

RTN2 (UniProt O75298)
inactive: [1] -0.008 | [2] 0.068 | [3] -0.14 | [4] 0.052 | [5] 0.021 | [6] 0.033 | [7] 0.037 | [8] -0.009 | [9] -0.055 | [10] 0.021 | [11] 0.004 | [12] 0.001 | [13] -0.059 | [14] -0.07 | [15] 0.008 | [16] -0.258 | [17] -0.004 | [18] -0.001 | [19] -0.035 | [20] 0.077

S100A13 (UniProt Q99584)
inactive: [1] 0.041 | [2] 0.012 | [3] 0.023 | [4] -0.023 | [5] 0.012 | [6] 0.028 | [7] 0.002 | [8] -0.002 | [9] 0.038 | [10] -0.007 | [11] 0.046 | [12] -0.012 | [13] -0.028 | [14] -0.083 | [15] -0.031 | [16] -0.057 | [17] -0.039 | [18] -0.033 | [19] 0.02 | [20] -0.031

SART1 (UniProt O43290)
inactive: [1] -0.082 | [2] -0.161 | [3] -0.585 | [4] 0.021 | [5] -0.189 | [6] -0.006 | [7] -0.158 | [8] -0.047 | [9] -0.029 | [10] -0.114 | [11] -0.265 | [12] 0.033 | [13] 0.036 | [14] 0.218 | [15] 0.043 | [16] -0.021 | [17] 0.118 | [18] 0.269 | [19] 0.049 | [20] -0.445
